Measurements taken from PMC10491536.
Results are given in words; binding and its absence hold for the method and conditions named. For part of these data: In cells and extracts the contact can be indirect. Some entries that bind do so weakly or less than the wild type.

Chains of the proteins cited; added tags and fusions are not shown. Lines headed by an entry give the natural chain unless they say otherwise; changes in a name come on top. Residues count along the entry.
UniProt Q9D6F4: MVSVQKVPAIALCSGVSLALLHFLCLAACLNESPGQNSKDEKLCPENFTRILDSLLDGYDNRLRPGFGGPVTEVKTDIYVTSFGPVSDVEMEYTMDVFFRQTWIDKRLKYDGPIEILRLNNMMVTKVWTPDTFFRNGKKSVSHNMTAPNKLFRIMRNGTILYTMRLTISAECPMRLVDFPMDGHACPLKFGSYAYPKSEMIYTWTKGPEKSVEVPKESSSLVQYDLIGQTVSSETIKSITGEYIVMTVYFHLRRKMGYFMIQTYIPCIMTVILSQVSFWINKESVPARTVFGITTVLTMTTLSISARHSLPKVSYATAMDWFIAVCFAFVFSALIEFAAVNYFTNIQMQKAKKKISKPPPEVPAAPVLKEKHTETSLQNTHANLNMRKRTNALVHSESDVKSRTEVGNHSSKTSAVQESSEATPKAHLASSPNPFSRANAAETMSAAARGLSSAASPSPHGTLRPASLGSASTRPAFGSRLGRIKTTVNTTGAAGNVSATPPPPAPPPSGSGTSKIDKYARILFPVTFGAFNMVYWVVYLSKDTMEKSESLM
endogenous α4 subunit of GABAAR from adult mouse hippocampus (mouse (endogenous in hippocampus)): residues 36-552 of Q9D6F4
UniProt P24385: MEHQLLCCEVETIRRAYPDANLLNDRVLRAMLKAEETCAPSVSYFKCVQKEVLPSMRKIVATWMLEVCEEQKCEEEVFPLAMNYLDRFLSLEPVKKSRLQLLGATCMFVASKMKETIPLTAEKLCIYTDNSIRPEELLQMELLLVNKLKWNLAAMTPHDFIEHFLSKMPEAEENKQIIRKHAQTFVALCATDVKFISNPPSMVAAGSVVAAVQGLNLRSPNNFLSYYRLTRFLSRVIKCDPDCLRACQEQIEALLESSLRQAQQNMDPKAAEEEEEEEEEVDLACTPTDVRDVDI
UniProt P25322: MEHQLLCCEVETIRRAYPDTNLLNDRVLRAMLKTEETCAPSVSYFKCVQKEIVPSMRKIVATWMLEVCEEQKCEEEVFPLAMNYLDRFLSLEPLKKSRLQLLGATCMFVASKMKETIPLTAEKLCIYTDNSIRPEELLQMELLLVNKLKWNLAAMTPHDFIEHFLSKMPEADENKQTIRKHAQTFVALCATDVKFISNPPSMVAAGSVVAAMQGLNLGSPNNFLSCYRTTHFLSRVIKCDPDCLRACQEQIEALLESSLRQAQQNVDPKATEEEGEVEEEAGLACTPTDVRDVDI

How the values were obtained:
[1] = target: GST fusion of the C-terminus of α4 (354-552aa) (mouse) (UniProt Q9D6F4); test: pull-down; 400 ng of GST or GST fusion immobilised on Glutathione-Sepharose 4B beads, incubated with in vitro-translated Flag-Ccnd1; 20 mM HEPES-KOH pH 7.5, 150 mM KCl, 5 mM MgCl2, 0.5 mM EDTA, 0.1% NP-40, 30 min at room temperature; only the target purified
[2] = target: Flag-tagged Ccnd1 expressed in HEK-293T cells (human) (UniProt P24385); test: co-IP; HEK-293T cells 48 h after transfection, RIPA buffer; Flag-Ccnd1 precipitated with M2 Flag antibody and protein G dynabeads; blots with anti-HA and anti-Flag
[3] = target: endogenous α4 subunit of GABAAR from adult mouse hippocampus (mouse (endogenous in hippocampus)) (UniProt Q9D6F4); test: co-IP; endogenous α4 precipitated from adult mouse hippocampal extracts in RIPA buffer with a rabbit polyclonal antibody and Protein A magnetic beads; anti-Flag as mock control; washes with RIPA without SDS
[4] = target: Cyclin D1 (Ccnd1), yeast two-hybrid bait (UniProt P24385); test: two-hybrid; yeast two-hybrid screening, Ccnd1 as bait, adult mouse brain library as prey

Row | binding [4] | Substance | also measured
1 | – | Flag-Ccnd1 produced by in vitro transcription and translation (from UniProt P24385 1-295) | binding [1]: binds
2 | – | HA-tagged C-terminal region of α4 (354-552aa) (from UniProt Q9D6F4 354-552) (domain or fragment) | binding [2]: binds
3 | – | endogenous Ccnd1 from adult mouse hippocampus (from UniProt P25322 1-295) | binding [3]: binds weakly
4 | binds | α4 subunit of GABAA receptors, two-hybrid clone spanning amino acids 354–552 (from UniProt Q9D6F4 354-552) (domain or fragment) | –
5 | binds | α4 subunit of GABAA receptors, two-hybrid clone spanning amino acids 385–552 (from UniProt Q9D6F4 385-552) (domain or fragment) | –
6 | binds | α4 subunit of GABAA receptors, two-hybrid clone spanning amino acids 386–552 (from UniProt Q9D6F4 386-552) (domain or fragment) | –
